The values below come from publication PMC9257318.

Amino acid sequences for entries named in this document (tags omitted).
UniProt Q92769: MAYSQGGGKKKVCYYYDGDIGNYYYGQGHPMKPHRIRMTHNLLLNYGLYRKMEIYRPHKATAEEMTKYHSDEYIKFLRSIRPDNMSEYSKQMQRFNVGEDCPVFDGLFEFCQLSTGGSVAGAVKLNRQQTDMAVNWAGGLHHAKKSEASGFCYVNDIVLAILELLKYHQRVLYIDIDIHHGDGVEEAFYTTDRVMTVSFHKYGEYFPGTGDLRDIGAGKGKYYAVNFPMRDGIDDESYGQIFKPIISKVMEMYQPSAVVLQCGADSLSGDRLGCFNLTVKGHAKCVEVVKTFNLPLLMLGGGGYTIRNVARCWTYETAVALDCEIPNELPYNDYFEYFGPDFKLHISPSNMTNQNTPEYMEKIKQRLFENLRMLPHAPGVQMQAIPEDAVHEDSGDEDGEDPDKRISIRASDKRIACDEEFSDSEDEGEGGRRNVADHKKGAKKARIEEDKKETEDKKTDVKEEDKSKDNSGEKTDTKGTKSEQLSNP
UniProt Q13547: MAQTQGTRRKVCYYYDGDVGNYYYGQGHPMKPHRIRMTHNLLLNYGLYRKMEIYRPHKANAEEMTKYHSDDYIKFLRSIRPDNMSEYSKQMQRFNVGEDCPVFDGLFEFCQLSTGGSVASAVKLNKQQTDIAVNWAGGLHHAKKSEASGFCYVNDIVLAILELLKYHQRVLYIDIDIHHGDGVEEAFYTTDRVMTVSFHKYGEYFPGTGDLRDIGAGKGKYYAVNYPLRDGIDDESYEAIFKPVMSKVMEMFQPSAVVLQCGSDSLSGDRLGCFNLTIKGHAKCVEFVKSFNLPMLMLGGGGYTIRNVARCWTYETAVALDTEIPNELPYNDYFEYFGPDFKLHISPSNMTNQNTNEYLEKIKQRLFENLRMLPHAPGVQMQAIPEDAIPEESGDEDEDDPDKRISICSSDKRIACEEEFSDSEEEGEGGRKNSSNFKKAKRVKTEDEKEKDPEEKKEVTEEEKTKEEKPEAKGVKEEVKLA

Results are given in words; binding and its absence hold for the method and conditions named. In cells and extracts the contact can be indirect. Some entries that bind do so weakly or less than the wild type. For some of these results: Sequences can lack the tags named with a protein.

For assay [1], the target named is euchromatic histone-lysine N-methyltransferase 2 (EHMT2) (human (endogenous in MCL cells)) (UniProt Q96KQ7). Kind of assay: co-IP; immunoprecipitation of endogenous EHMT2 from MCL cell lysate with the Pierce Crosslink Immunoprecipitation Kit, antibody overnight at 4 °C, anti-IgG as negative control; eluate analysed by western blotting. Background: In western blotting, separated proteins are transferred to a membrane and probed.

Assay [2] addresses T1, euchromatic histone-lysine N-methyltransferase 2 (EHMT2) (human (endogenous in MCL cells)), Q96KQ7.
T1 chain: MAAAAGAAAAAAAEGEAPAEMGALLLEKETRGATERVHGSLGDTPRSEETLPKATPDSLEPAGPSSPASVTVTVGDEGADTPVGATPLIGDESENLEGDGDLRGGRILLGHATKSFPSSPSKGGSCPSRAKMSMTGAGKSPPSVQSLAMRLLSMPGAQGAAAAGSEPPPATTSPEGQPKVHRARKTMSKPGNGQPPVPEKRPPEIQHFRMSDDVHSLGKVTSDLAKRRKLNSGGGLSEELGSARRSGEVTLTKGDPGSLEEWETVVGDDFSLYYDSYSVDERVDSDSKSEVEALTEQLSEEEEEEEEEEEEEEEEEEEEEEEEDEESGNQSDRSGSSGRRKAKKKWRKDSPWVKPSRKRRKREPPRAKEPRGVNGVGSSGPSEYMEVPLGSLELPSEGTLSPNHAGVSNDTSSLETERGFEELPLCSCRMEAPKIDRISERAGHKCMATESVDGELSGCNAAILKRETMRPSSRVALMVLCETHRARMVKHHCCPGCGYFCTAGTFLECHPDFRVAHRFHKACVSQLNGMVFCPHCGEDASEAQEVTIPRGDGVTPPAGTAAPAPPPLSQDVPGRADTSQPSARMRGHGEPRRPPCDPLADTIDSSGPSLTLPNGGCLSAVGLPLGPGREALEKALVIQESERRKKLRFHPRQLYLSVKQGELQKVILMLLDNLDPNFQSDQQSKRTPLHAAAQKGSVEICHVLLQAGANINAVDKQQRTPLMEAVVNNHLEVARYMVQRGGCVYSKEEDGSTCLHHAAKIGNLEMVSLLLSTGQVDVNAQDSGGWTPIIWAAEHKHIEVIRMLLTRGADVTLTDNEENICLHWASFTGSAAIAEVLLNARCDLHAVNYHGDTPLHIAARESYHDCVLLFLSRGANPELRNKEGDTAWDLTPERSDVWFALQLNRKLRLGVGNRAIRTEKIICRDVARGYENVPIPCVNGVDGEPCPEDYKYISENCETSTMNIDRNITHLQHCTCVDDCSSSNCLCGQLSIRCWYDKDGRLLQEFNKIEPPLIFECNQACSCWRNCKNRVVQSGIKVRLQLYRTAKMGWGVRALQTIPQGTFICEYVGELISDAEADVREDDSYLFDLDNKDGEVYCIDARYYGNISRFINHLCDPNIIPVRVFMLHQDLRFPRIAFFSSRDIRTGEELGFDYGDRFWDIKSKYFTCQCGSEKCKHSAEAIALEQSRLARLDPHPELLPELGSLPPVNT
The assay is described as above. The following applies: remark: other sources report otherwise.

For HDAC2 (from UniProt Q92769 1-488), the binding result in assay [1] is on record as “binds”.

As to HDAC1 (from UniProt Q13547 1-482), the binding entry in assay [1] is “binds”.

B1: HDAC3, O15379 1-428 (protein)
chain: MAKTVAYFYDPDVGNFHYGAGHPMKPHRLALTHSLVLHYGLYKKMIVFKPYQASQHDMCRFHSEDYIDFLQRVSPTNMQGFTKSLNAFNVGDDCPVFPGLFEFCSRYTGASLQGATQLNNKICDIAINWAGGLHHAKKFEASGFCYVNDIVIGILELLKYHPRVLYIDIDIHHGDGVQEAFYLTDRVMTVSFHKYGNYFFPGTGDMYEVGAESGRYYCLNVPLRDGIDDQSYKHLFQPVINQVVDFYQPTCIVLQCGADSLGCDRLGCFNLSIRGHGECVEYVKSFNIPLLVLGGGGYTVRNVARCWTYETSLLVEEAISEELPYSEYFEYFAPDFTLHPDVSTRIENQNSRQYLDQIRQTIFENLKMLNHAPSVQIHDVPADLLTYDRTDEADAEERGPEENYSRPEAPNEFYDGDHDNDKESDVEI
As for B1, the binding result in assay [2] is “no binding”.

B2: ubiquitin-like, containing PHD and RING finger domains, 1 (UHRF1) (protein, UniProt Q96T88 1-793)
chain: MWIQVRTMDGRQTHTVDSLSRLTKVEELRRKIQELFHVEPGLQRLFYRGKQMEDGHTLFDYEVRLNDTIQLLVRQSLVLPHSTKERDSELSDTDSGCCLGQSESDKSSTHGEAAAETDSRPADEDMWDETELGLYKVNEYVDARDTNMGAWFEAQVVRVTRKAPSRDEPCSSTSRPALEEDVIYHVKYDDYPENGVVQMNSRDVRARARTIIKWQDLEVGQVVMLNYNPDNPKERGFWYDAEISRKRETRTARELYANVVLGDDSLNDCRIIFVDEVFKIERPGEGSPMVDNPMRRKSGPSCKHCKDDVNRLCRVCACHLCGGRQDPDKQLMCDECDMAFHIYCLDPPLSSVPSEDEWYCPECRNDASEVVLAGERLRESKKKAKMASATSSSQRDWGKGMACVGRTKECTIVPSNHYGPIPGIPVGTMWRFRVQVSESGVHRPHVAGIHGRSNDGAYSLVLAGGYEDDVDHGNFFTYTGSGGRDLSGNKRTAEQSCDQKLTNTNRALALNCFAPINDQEGAEAKDWRSGKPVRVVRNVKGGKNSKYAPAEGNRYDGIYKVVKYWPEKGKSGFLVWRYLLRRDDDEPGPWTKEGKDRIKKLGLTMQYPEGYLEALANREREKENSKREEEEQQEGGFASPRTGKGKWKRKSAGGGPSRAGSPRRTSKKTKVEPYSLTAQQSSLIREDKSNAKLWNEVLASLKDRPASGSPFQLFLSKVEETFQCICCQELVFRPITTVCQHNVCKDCLDRSFRAQVFSCPACRYDLGRSYAMQVNQPLQTVLNQLFPGYGNGR
Consider B2, for which, in assay [1], the binding result is on record as “binds”.
